Laboratory results: PMC6243087
Results are given in words; binding and its absence hold for the method and conditions named. Binding seen in cells or lysates may run through a third protein. Some binding calls cover weakened binding; strength is not graded here. Where a sequence is shown, tags or fusion partners need not be part of it.

Protein sequences, listed by entry. Tags and fused reporters are not part of them.
UniProt Q5S007: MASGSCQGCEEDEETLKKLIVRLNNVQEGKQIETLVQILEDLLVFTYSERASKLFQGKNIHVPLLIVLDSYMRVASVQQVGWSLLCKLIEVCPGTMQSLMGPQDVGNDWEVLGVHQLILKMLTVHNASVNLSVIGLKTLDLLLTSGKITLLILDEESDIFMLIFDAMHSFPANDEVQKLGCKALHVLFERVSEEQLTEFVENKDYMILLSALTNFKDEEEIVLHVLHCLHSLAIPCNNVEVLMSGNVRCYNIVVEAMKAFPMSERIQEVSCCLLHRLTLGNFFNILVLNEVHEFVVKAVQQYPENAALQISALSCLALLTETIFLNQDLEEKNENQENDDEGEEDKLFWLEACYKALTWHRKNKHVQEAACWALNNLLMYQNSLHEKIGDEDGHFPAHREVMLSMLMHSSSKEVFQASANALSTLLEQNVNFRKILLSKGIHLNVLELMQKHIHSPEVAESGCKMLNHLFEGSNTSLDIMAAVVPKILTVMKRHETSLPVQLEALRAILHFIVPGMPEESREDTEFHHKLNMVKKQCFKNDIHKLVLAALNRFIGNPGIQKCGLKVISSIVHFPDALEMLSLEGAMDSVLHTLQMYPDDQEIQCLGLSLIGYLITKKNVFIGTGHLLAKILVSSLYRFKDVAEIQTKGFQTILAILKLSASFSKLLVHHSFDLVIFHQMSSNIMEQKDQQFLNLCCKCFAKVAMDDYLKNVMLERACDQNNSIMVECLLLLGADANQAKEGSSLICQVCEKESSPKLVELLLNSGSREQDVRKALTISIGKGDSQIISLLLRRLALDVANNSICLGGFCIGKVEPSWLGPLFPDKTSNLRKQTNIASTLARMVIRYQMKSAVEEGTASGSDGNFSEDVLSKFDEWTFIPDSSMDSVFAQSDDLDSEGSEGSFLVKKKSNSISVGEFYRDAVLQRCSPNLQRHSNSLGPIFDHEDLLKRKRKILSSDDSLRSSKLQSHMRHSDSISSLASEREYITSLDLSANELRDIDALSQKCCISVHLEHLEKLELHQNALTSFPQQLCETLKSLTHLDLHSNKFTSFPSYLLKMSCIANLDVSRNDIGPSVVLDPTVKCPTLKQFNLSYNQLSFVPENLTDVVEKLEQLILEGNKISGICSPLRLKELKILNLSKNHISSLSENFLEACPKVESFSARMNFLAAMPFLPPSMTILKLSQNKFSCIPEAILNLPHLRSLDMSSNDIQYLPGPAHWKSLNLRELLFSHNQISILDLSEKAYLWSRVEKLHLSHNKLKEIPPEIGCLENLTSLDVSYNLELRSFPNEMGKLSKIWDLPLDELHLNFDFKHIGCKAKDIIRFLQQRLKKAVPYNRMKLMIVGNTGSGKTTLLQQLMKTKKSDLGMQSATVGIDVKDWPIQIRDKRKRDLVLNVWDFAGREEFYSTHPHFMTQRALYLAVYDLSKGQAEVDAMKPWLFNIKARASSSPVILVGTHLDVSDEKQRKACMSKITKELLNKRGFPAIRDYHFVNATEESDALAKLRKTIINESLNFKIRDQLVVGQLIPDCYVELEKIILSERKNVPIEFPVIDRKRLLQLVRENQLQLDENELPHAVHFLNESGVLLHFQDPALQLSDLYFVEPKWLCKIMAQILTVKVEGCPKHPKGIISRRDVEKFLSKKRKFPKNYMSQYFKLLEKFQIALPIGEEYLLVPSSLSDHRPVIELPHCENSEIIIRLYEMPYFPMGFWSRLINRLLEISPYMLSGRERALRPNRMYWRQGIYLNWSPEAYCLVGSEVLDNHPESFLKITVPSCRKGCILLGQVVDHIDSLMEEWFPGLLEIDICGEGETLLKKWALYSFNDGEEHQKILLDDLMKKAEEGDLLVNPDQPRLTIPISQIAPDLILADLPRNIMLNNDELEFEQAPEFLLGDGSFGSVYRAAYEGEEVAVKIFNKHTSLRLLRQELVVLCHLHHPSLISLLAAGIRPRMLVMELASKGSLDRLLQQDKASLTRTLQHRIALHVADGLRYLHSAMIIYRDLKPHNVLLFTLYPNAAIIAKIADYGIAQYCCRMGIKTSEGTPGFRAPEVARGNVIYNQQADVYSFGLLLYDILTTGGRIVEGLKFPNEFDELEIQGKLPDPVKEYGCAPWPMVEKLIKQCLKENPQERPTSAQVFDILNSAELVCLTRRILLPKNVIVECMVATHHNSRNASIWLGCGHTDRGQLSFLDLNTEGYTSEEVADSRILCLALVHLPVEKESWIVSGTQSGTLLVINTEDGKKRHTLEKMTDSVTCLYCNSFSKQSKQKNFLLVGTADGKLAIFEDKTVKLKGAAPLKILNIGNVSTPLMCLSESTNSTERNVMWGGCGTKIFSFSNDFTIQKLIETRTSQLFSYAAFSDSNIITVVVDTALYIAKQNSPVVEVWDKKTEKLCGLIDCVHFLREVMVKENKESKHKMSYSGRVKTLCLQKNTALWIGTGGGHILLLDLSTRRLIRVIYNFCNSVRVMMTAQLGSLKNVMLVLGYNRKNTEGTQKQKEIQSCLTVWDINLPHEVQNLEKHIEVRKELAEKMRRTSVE
UniProt P51149: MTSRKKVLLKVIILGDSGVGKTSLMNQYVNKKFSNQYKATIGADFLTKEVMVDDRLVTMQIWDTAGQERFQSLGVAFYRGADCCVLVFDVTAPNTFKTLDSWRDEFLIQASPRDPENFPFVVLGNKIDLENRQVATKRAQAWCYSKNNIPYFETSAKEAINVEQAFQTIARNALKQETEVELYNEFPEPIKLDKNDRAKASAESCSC

Target: GFP-tagged wildtype human LRRK2 (human) (UniProt Q5S007)
Assay: co-IP; HEK293T cells co-transfected with GFP-tagged LRRK2 constructs and 3xFlag-tagged RAB constructs; lysis in 50 mM Tris-HCl pH 7.6, 150 mM NaCl, 2 mM MgCl2, 1% Triton-X100, 1 mM DTT; immunoprecipitation with polyclonal anti-GFP antibody and protein G Sepharose at 4°C; blot for GFP and flag; cells treated with 100 nM MLi2 for 60 min where indicated

Molecule: 3xFlag-tagged RAB7A (from UniProt P51149 1-207)
- binding: no binding

B1: 3xFlag-tagged RAB7L1 (protein, UniProt O14966 1-203)
chain: MGSRDHLFKVLVVGDAAVGKTSLVQRYSQDSFSKHYKSTVGVDFALKVLQWSDYEIVRLQLWDIAGQERFTSMTRLYYRDASACVIMFDVTNATTFSNSQRWKQDLDSKLTLPNGEPVPCLLLANKCDLSPWAVSRDQIDRFSKENGFTGWTETSVKENKNINEAMRVLIEKMMRNSTEDIMSLSTQGDYINLQTKSSSWSCC
- binding: binds
